The target in the experiment is 3xFlag-GM4951 (endogenous protein of 3xFlag-Gm4951 knockin mice) (mouse) (UniProt Q3UED7). Kind of experiment: affinity purification with mass spectrometry; anti-Flag immunoprecipitates from +/+ or Gm4951 3xFlag/3xFlag whole liver lysates (Nonidet P-40 lysis buffer, Flag M2 beads, eluted with 3xFlag peptides), analysed by mass spectrometry.

The chains behind the UniProt entries cited, without tags or fusion partners. Where a name states a change or a piece, a line headed by the entry shows the natural chain unless it says otherwise.
UniProt Q3UED7: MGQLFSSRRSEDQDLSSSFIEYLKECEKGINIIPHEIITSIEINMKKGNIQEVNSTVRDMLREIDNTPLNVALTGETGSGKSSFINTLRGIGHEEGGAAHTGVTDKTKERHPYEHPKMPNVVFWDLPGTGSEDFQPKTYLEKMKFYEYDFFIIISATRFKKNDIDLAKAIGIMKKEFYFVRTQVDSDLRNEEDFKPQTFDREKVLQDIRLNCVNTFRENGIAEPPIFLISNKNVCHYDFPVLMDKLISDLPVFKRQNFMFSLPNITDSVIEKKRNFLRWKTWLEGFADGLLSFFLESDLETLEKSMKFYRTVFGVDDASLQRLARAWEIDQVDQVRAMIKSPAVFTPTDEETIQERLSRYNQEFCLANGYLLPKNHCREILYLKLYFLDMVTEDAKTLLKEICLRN

Results are given in words; binding and its absence hold for the method and conditions named. Binding seen in cells or lysates may run through a third protein. These calls come from enrichment with a bait or labelling near it, and not all partners need be listed.

B1: IRGM1, endogenous in mouse liver (protein, UniProt Q60766 1-409)
chain: MKPSHSSCEAAPLLPNMAETHYAPLSSAFPFVTSYQTGSSRLPEVSRSTERALREGKLLELVYGIKETVATLSQIPVSIFVTGDSGNGMSSFINALRVIGHDEDASAPTGVVRTTKTRTEYSSSHFPNVVLWDLPGLGATAQTVEDYVEEMKFSTCDLFIIIASEQFSSNHVKLSKIIQSMGKRFYIVWTKLDRDLSTSVLSEVRLLQNIQENIRENLQKEKVKYPPVFLVSSLDPLLYDFPKLRDTLHKDLSNIRCCEPLKTLYGTYEKIVGDKVAVWKQRIANESLKNSLGVRDDDNMGECLKVYRLIFGVDDESVQQVAQSMGTVVMEYKDNMKSQNFYTLRREDWKLRLMTCAIVNAFFRLLRFLPCVCCCLRRLRHKRMLFLVAQDTKNILEKILRDSIFPPQI
Take B1: the binding entry is recorded as “binds”.

B2: Hydroxysteroid 17β-dehydrogenase 13 (HSD17B13), endogenous in mouse liver (protein, UniProt Q8VCR2 20-304)
chain: ESLVKFFIPRRRKSVTGQTVLITGAGHGIGRLTAYEFAKQKSRLVLWDINKRGVEETADKCRKLGAVVHVFVVDCSNRAEIYNSVDQVKREVGDVEIVVNNAGAIYPADLLSAKDEEITKTFEVNILGHFWIIKALLPSMLRRNSGHIVTVASVCGHGVIPYLIPYCSSKFAAVGFHRALTAELDTLGKTGIQTSCLCPVFVNTGFTKNPSTRLWPVLEPEEVARSLINGILTNKKMIFVPSYINISLILEKGPGFSSKHPHGGSQQPVTPIPGDLTPSSDFLKH
With B2, the binding result was “binds”.
